Values joined by “and” are separate entries in the source; they are usually repeats but may differ in a detail not shown here. Identical values can stand only once.

The values that follow come from patent publication US5411707A, “Vacuum extractor incorporating a condenser column” (priority 1994, dated 1995).

Data set [1] is described as follows: Vacuum distillation recovery from spiked water and spiked soil, GC/MS (Table 2). The conditions noted are these: 50 ppb, 10 min distillation, condenser -15° C.; for 5 G SOIL RECOVERY: 5 g soil + 1 ml water.
The nature of data set [2]: Recovery of volatile organic analytes from spiked water and cod liver oil/water emulsion (Table 3). Conditions: 10 min, condenser -10° C., ± one sigma; for Recovery, H2O/Oil 20 mL: 1 g cod liver oil and 20 ml water emulsion; for Recovery, H2O/Oil 5 mL: 1 gram cod liver oil and 5 ml water emulsion; for Recovery, Water 5 mL: 5 mL water, relative to internal standard d3-vinylchloride; for Recovery, Water 20 mL: 20 mL water, relative to d3-vinylchloride.

Data set [3] is described as follows: Recovery of volatile organic analytes from spiked soil (Table 5). The conditions noted are these: 50 ppb, condenser -10° C.; for Recovery, Soil/Oil Water: 5 g soil + 1 g cod liver oil + water slurry; for Recovery, Soil/Oil: 5 g soil + 1 g cod liver oil, spiked using 0.2 ml water; for Recovery, Soil/Water: 5 g soil + 5 ml water slurry, 10 min.
Data set [4] is described as follows: Method detection limits for volatile organic analytes in soil (Table 7). Conditions: 4 ppb, average of three nonconsecutive-day studies, values marked ^c: MDL exceed concentration studies.
The nature of data set [5]: Method detection limits for volatile organic analytes in water (Table 6). Conditions: 5 mL water, 4 ppb; for Method Detection Limit, External Standard Method: average of three nonconsecutive-day studies; for Method Detection Limit, Internal Standard Method: d3-vinylchloride internal standard.

On to `c1ccc2c(c1)oc1ccccc12` [Dibenzofuran], for which, in data set [1], the “5 G SOIL RECOVERY” value came out at 15.9% and the “5 ML WATER RECOVERY” value was found to be 3.1%.
The corresponding values for `CCCCN(CCCC)N=O` [n-Nitroso-di-n-butylamine] are 8.3% and 1.4%.
For `Cc1ccc(Cl)cc1` [4-Chlorotoluene], in data set [1], the “5 G SOIL RECOVERY” value was found to be 73.5% and the “5 ML WATER RECOVERY” value worked out at 56.6%.
For the compound `CC(C)=O` [Acetone], in data set [2], the “Recovery, H2O/Oil 20 mL” value is on record as 87 ± 42%; the “Recovery, H2O/Oil 5 mL” value was found to be 95 ± 35%; the “Recovery, Water 5 mL” value turned out to be 70 ± 23%; the “Recovery, Water 20 mL” value is given as 60 ± 41%. In data set [3], the “Recovery, Soil/Oil Water” value turned out to be 50 ± 13%.
Turning to `CCN(C)N=O` [n-Nitrosodi-methylethylamine], in data set [1], the “5 G SOIL RECOVERY” value stood at 6.3% and the “5 ML WATER RECOVERY” value is 6.0%.
The matching figures for `CCN(CC)N=O` [n-Nitroso-di-n-ethylamine]: 7.3% and 5.6%.
The corresponding values for `CN(C)N=O` [n-Nitrosodi-methylamine] are 7.3% and 2.6%.
With `OCc1ccccc1` [Benzyl alcohol], in data set [1], the “5 G SOIL RECOVERY” value is given as 5.6% and the “5 ML WATER RECOVERY” value was determined as 4.2%.
The corresponding values for `CC(C)c1ccccc1` [iso-Propylbenzene] are 72.8% and 64.1%.
The corresponding values for `O=NN1CCCC1` [n-Nitroso-pyrrolidine] are 3.4% and 3.2%.
On to `CCC(C)=O` [2-Butanone], for which, in data set [2], the “Recovery, H2O/Oil 5 mL” value stood at 47 ± 15%; the “Recovery, Water 5 mL” value came to 79 ± 45%; the “Recovery, Water 20 mL” value is listed as 88 ± 13%. Moreover, the “Recovery, Soil/Oil” value in data set [3] is on record as 60 ± 63%.
On to `Clc1cc(Cl)c(Cl)c(Cl)c1Cl` [Pentachlorobenzene], for which, in data set [1], the “5 G SOIL RECOVERY” value worked out at 17.1% and the “5 ML WATER RECOVERY” value stood at 4.6%.
The matching figures for `Clc1ccccc1Cl` [1,2-Dichlorobenzene]: 66.7% and 52.1%.
With `CC#N` [Acetonitrile], in data set [1], the “5 G SOIL RECOVERY” value turned out to be 76.9% and the “5 ML WATER RECOVERY” value was 68.0%.
The matching figures for `Nc1ccccc1[N+](=O)[O-]` [2-Nitroaniline]: 4.4% and 6.7%.
The corresponding values for `Cc1ccccc1O` [2-Methylphenol] are 2.6% and 3.0%.
The matching figures for `Clc1cccc(Cl)c1Cl` [1,2,3-Trichloro benzene]: 25.6% and 21.8%.
Regarding `Clc1ccc(Cl)cc1` [1,4-dichlorobenzene, reference compound], in data set [2], the “Recovery, H2O/Oil 5 mL” value is 29 ± 9%; the “Recovery, Water 5 mL” value is on record as 109 ± 19%; the “Recovery, Water 20 mL” value came to 97 ± 20%. Also, in data set [3], the “Recovery, Soil/Oil Water” value stood at 22 ± 4%; the “Recovery, Soil/Oil” value is listed as 17 ± 4%; the “Recovery, Soil/Water” value amounted to 79 ± 13%.
Regarding `Brc1ccccc1` [Bromobenzene], in data set [1], the “5 G SOIL RECOVERY” value is 77.2% and the “5 ML WATER RECOVERY” value was 56.6%.
In the case of `Cc1ccc(C)c(C)c1` [1,2,4-Trimethyl benzene], in data set [1], the “5 G SOIL RECOVERY” value is listed as 70.6% and the “5 ML WATER RECOVERY” value was found to be 55.8%.
The corresponding values for `C1COCCO1` [1,4-Dioxane] are 24.3% and 15.6%.
The corresponding values for `C=CC#N` [Acrylonitrile] are 61.8% and 30.3%.
As to `Clc1cccc(Cl)c1` [1,3-Dichlorobenzene], in data set [1], the “5 G SOIL RECOVERY” value was 69.4% and 70.4%; the “5 ML WATER RECOVERY” value is 54.1% and 53.3%.
For the compound `C=C(C)C(=O)OC` [Methyl methacrylate], in data set [1], the “5 G SOIL RECOVERY” value is given as 72.6% and the “5 ML WATER RECOVERY” value was 50.6%.
For `Cc1cc(O)ccc1Cl` [4-Chloro-3-methyl phenol], in data set [1], the “5 G SOIL RECOVERY” value was 14.2% and the “5 ML WATER RECOVERY” value is 5.4%.
The corresponding values for `Cc1ccc(O)c(C)c1` [2,4-Dimethylphenol] are 7.5% and 1.7%.
In the case of `CCOCC` [Diethyl ether], in data set [1], the “5 G SOIL RECOVERY” value was 83.2% and the “5 ML WATER RECOVERY” value turned out to be 77.5%.
Take `ClCCl` [Methylene Chloride]: in data set [2], the “Recovery, H2O/Oil 20 mL” value was determined as 111 ± 30%; the “Recovery, H2O/Oil 5 mL” value is listed as 111 ± 20%; the “Recovery, Water 5 mL” value worked out at 72 ± 13%; the “Recovery, Water 20 mL” value is given as 87 ± 10%. For the same compound, in data set [3], the “Recovery, Soil/Oil Water” value is on record as 84 ± 5%; the “Recovery, Soil/Oil” value is recorded as 114 ± 12%; the “Recovery, Soil/Water” value stood at 66 ± 15%. Also, in data set [4], the “MDL, External Standard Method” value is 3.3 ppb and the “MDL, Internal Standard Method” value is recorded as 4.0 ppb. In data set [5], the “Method Detection Limit, External Standard Method” value came out at 3.1 PPb and the “Method Detection Limit, Internal Standard Method” value came out at 3.0 PPb.
For `BrCBr` [Dibromomethane], in data set [1], the “5 G SOIL RECOVERY” value came to 75.2% and the “5 ML WATER RECOVERY” value turned out to be 50.5%.
The corresponding values for `ClCCOCCCl` [bis(2-Chloroethyl) ether] are 19.5% and 10.6%.
Consider `Cc1ccccc1N` [o-Toluidine], for which, in data set [1], the “5 G SOIL RECOVERY” value is given as 4.8% and the “5 ML WATER RECOVERY” value was determined as 4.0%.
The corresponding values for `C=C(C)C#N` [Methy acrylonitrile] are 74.7% and 64.2%.
The corresponding values for `Cc1cc(C)cc(C)c1` [1,3,5-Trimethyl benzene] are 72.1% and 57.3%.
Turning to `Cl/C=C/Cl` [trans-1,2-Dichloroethene], in data set [2], the “Recovery, H2O/Oil 20 mL” value is 70 ± 16%; the “Recovery, H2O/Oil 5 mL” value turned out to be 103 ± 17%; the “Recovery, Water 5 mL” value amounted to 84 ± 6%; the “Recovery, Water 20 mL” value was 88 ± 11%. In addition, in data set [4], the “MDL, External Standard Method” value was 3.2 ppb and the “MDL, Internal Standard Method” value is on record as 2.2 ppb. In addition, in data set [5], the “Method Detection Limit, External Standard Method” value is 3.0 PPb and the “Method Detection Limit, Internal Standard Method” value came to 2.1 PPb.
For the compound `Cc1ccc(C(C)C)cc1` [para-iso-Propyl toluene], in data set [1], the “5 G SOIL RECOVERY” value is listed as 63.8% and the “5 ML WATER RECOVERY” value stood at 56.6%.
The corresponding values for `CC(C)CO` [Isobutanol] are 21.0% and 12.2%.
The corresponding values for `CC(C)(C)c1ccccc1` [tert-Butlybenzene] are 70.6% and 55.5%.
The corresponding values for `ClCCOCOCCCl` [bis-2-Chloroethoxy methane] are 3.7% and 4.3%.
Consider `CCCN(CCC)N=O` [n-Nitroso-di-n-propylamine], for which, in data set [1], the “5 G SOIL RECOVERY” value is 5.6% and the “5 ML WATER RECOVERY” value was 4.4%.
The corresponding values for `Clc1ccc(Cl)c(Cl)c1` [1,2,4-Trichloro-benzene] are 32.5% and 29.3%.
As for `Nc1ccccc1` [Aniline], in data set [1], the “5 G SOIL RECOVERY” value is recorded as 9.2% and the “5 ML WATER RECOVERY” value came to 17.2%.
In the case of `Oc1ccccc1F` [2-Fluorophenol], in data set [1], the “5 G SOIL RECOVERY” value amounted to 8.2% and the “5 ML WATER RECOVERY” value amounted to 5.4%.
The matching figures for `CCCCc1ccccc1` [n-Butylbenzene]: 59.2% and 55.0%.
The matching figures for `c1ccc2ccccc2c1` [Naphthalene]: 22.7% and 18.9%.
The corresponding values for `C=C(C)C(=O)OCC` [Ethyl methacrylate] are 50.7% and 39.7%.
As for `C=CCCl` [Allyl chloride], in data set [1], the “5 G SOIL RECOVERY” value came out at 81.0% and the “5 ML WATER RECOVERY” value came to 85.9%.
In the case of `c1ccncc1` [Pyridine], in data set [1], the “5 G SOIL RECOVERY” value came out at 9.4% and the “5 ML WATER RECOVERY” value stood at 8.9%.
The corresponding values for `CCC#N` [Propionitrile] are 49.7% and 19.0%.
The corresponding values for `Oc1ccccc1Cl` [2-Chlorophenol] are 5.6% and 6.9%.
The corresponding values for `CCC(C)c1ccccc1` (stereo not drawn) [sec-butylbenzene] are 70.5% and 56.2%.
Regarding `Nc1ccc(Cl)cc1` [4-Chloroaniline], in data set [1], the “5 G SOIL RECOVERY” value is reported as 15.4% and the “5 ML WATER RECOVERY” value was 5.0%.
The corresponding values for `CC(=O)c1ccccc1` [Acetophenone] are 8.3% and 6.2%.
The matching figures for `CCCc1ccccc1` [n-Propylbenzene]: 72.0% and 58.6%.
The matching figures for `Oc1ccccc1` [Phenol]: 4.6% and 6.2%.
Turning to `Cc1ccccn1` [2-Picoline], in data set [1], the “5 G SOIL RECOVERY” value was determined as 4.1% and the “5 ML WATER RECOVERY” value stood at 11.7%.
The corresponding values for `O=NN1CCOCC1` [n-Nitrosomorpholine] are 3.5% and 4.2%.
The matching figures for `O=NN1CCCCC1` [n-Nitroso-piperidine]: 4.1% and 4.5%.
